# The whole screen tested about 310,000 compounds, of which about 17,000 (5.5%) were called active. The shares of active, inactive and inconclusive entries below differ from those in the screen. The call rests on the fitted dose curve; in most records, active means well fitted inhibition curve with a large enough effect; inconclusive means small, poorly fitted or top-dose-only effect, or effect the other way; inactive means no such curve, though single readings can be large or run the other way. Potencies beside an inconclusive call are fits to weak or partial responses and may not hold up.
# The chains behind the UniProt entries cited, without tags or fusion partners. Where a name states a change or a piece, a line headed by the entry shows the natural chain unless it says otherwise.
# UniProt P51450: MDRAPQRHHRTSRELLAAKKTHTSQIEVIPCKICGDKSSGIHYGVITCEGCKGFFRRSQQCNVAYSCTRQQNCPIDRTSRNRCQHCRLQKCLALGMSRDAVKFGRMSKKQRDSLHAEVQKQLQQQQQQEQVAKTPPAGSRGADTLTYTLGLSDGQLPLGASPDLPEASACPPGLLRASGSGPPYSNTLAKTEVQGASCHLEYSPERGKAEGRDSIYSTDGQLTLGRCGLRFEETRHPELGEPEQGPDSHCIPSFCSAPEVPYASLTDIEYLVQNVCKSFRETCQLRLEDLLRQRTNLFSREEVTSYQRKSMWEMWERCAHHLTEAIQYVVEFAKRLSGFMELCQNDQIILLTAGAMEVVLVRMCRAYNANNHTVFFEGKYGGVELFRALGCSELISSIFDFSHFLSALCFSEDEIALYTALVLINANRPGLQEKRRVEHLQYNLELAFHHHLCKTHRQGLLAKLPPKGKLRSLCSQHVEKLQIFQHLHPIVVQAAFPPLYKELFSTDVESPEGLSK
# Target: Nuclear receptor ROR-gamma (Mus musculus) (UniProt P51450)
# Assay: qHTS for inhibitors of ROR gamma transcriptional activity; further: nearly all actives have a fitted effect of over 60% in size
# Conditions: Drosophila S2 Gal4-RORgamma UAS-luciferase reporter, 20 h; activity change, negative = inhibition: at 53.6 µM (top of the series)
# Summary of the method: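 Luminescence from a UAS-regulated Photinus luciferase reporter in stably transfected Drosophila Schneider cells is measured; decreased signal marks ROR gamma inhibition. Fusion expression is induced by 700 uM copper sulfate for 20 hr.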
# On the % scale 0 is the no-effect control and ±100 the full control effect; potency means the concentration at half of the fitted maximal effect.
SMILES,Potency,"activity change, negative = inhibition"
O=C(c1scc2c1CCCC2)N1CCCCC1,"inconclusive: 15.8 µM [activator, single point]",
C=CCNc1nc(-c2sc(NC(C)=O)nc2C)cs1,"inconclusive: 0.891 µM [activator, partial curve]",
COC1=C(OC)C(=O)C(CCCCCCCCCCO)=C(C)C1=O,"inconclusive: 17.8 µM [inhibitor, single point]",
COc1ccc(-c2nc(N)nc(C(F)(F)F)c2-c2ccccc2OC)c(O)c1,"inconclusive: 22.4 µM [inhibitor, single point]",
Cc1cc(Nc2cccc([N+](=O)[O-])c2)c2cccc(C)c2n1,inactive,
CC(C)(C)c1ccc(/C=N/NC(=S)NC2CCCCC2)cc1,active: 1.12 µM,
COc1ccc(S(=O)(=O)N2CCCCC2)cc1N(C)S(=O)(=O)c1ccccc1,"inconclusive: 10 µM [activator, partial curve, poor fit]",
CCCCNC(=S)N(CCCO)Cc1cc2cc3c(cc2[nH]c1=O)OCCO3,"inconclusive: 12.6 µM [activator, partial curve]",
CCOC(=O)c1c(NC(=S)Nc2ccc(OC)cc2)sc2c1CCC2,"inconclusive: 10 µM [activator, partial curve]",
Cn1cccc1CNC(=O)Nc1ccccc1,"inconclusive: 3.16 µM [activator, partial curve]",
CC(=O)c1ccc(OCc2cc(C(=O)N3CCC(Oc4ccccc4C)CC3)no2)cc1,"inconclusive: 7.94 µM [inhibitor, partial curve]",
O=C(c1ccco1)N1CCN(C(c2ccccc2F)c2nnnn2CC2CCCO2)CC1 (configuration not stated),"inconclusive: 6.31 µM [inhibitor, partial curve]",
CCOc1ccc2nc(NC(=O)C3CCCN(S(=O)(=O)c4cccc5nonc45)C3)sc2c1 (configuration not stated),inactive,
CCc1cc(C(c2ccc(OC)c(OC)c2)N2CCOCC2)c(NC(=O)c2ccccc2)s1 (configuration not stated),"inconclusive: 3.98 µM [activator, full curve, poor fit]",
CCc1cc(C(=O)NNC(=S)NCc2ccccc2)cs1,active: 14.1 µM,
COc1ccc(NC(=O)c2ccc(F)c(F)c2)c2ccccc12,inactive,
CSc1ccc(/C=C(\C#N)C(=O)NC2CCCCC2)cc1,inactive,
CCCN1CC=C2C(C#N)=C(N)C(C#N)(C#N)C(c3cccc(OC)c3OC)C2C1 (configuration not stated),inactive,
CCn1c(C)nc2cc(C(=O)n3cc(C(=O)c4cc(F)ccc4O)cn3)ccc21,"inconclusive: 12.6 µM [activator, single point]",
CSc1cccc(NC(=S)NCCCN2CCN(c3ccc(F)cc3)CC2)c1,active: 6.31 µM,
CCCCN(C)CC(O)Cn1cc(/C=C/C(=O)c2cccs2)c2ccccc21 (configuration not stated),"inconclusive: 14.1 µM [inhibitor, single point]",
CC(NC(=O)COc1ccc(/C=N/NC(=O)CO)cc1)c1ccccc1 (configuration not stated),"inconclusive: 0.1 µM [inhibitor, full curve, poor fit]",
CCN(Cc1nc(-c2ccccc2)no1)C(=O)COc1cccc(OC)c1,"inconclusive: 12.6 µM [activator, partial curve]",
CCOC(=O)c1sc(NC(=O)c2cccc(S(=O)(=O)N3CCc4ccccc43)c2)c(C#N)c1C,"inconclusive: 35.5 µM [inhibitor, single point]",

SMILES,Potency,"activity change, negative = inhibition"
COc1ccccc1NC(=O)CSc1nnnn1-c1ccccc1OC,"inconclusive: 4.47 µM [activator, single point]",
Cc1cccc(-c2nc3c(c(SCC(=O)N(C)C)n2)CCCC3)c1,"inconclusive: 35.5 µM [activator, single point]",
C/C(Cn1nnc([N+](=O)[O-])n1)=N\NC(=O)c1ccccc1Cl,"inconclusive: 2.51 µM [inhibitor, partial curve]",
COc1cccc([C@@H]2Oc3ccc(Br)cc3C(=O)[C@H]2OC(=O)Nc2cc(OC)c(OC)c(OC)c2)c1,"inconclusive: 0.141 µM [inhibitor, full curve, poor fit]",
COc1ccc(/C=N/NC(=O)CN2CCCc3ccccc32)c(OC)c1,inactive,
COCCCNC(=O)c1nc2ccccc2c(=O)n1NC(=O)Nc1c(Cl)cccc1Cl,inactive,
COc1cccc(NC(=S)N(CCCN2CCCC2)Cc2cccn2Cc2ccc(Cl)cc2)c1,"inconclusive: 35.5 µM [inhibitor, single point]",
CC(C)c1ccc(C(=O)NN2CCOCC2)cc1,"inconclusive: 15.8 µM [activator, single point]",
O=C1c2ccccc2C(=O)N1CCCc1c[nH]c2ccc(Cl)cc12,"inconclusive: 10 µM [activator, partial curve]",
O=C(Nc1nc(-c2ccccc2)cs1)c1ccc(Br)o1,inactive,
O=C(N/N=C\c1ccccc1)c1ccccc1-n1cccc1,inactive,
Cc1cc(C)cc(-n2nnnc2SCC(=O)Nc2cccc(NC(=O)c3ccco3)c2)c1,"inconclusive: 35.5 µM [activator, single point]",
CC(=O)Nc1ccc(S(=O)(=O)NCCC(=O)Nc2cccc(Cl)c2)cc1,inactive,
CC(C)(C)c1ccc(-c2noc(CCC(=O)NCC3CCCO3)n2)cc1 (configuration not stated),active: 1 µM,
O=C(CSc1nc2[nH]ncc2c(=O)n1-c1ccccc1)N1CCCc2ccccc21,"inconclusive: 7.94 µM [activator, partial curve]",
O=C(NCc1ccco1)c1ccccc1,inactive,
COc1ccc(-n2c(O)c(C=NCc3ccccn3)c3ccccc3c2=O)c(OC)c1,inactive,
CCOc1ccc2nc(NC(=O)C3CCCN(S(=O)(=O)c4cccs4)C3)sc2c1 (configuration not stated),"inconclusive: 35.5 µM [activator, single point]",
c1coc(CN(Cc2cccs2)Cc2nnnn2C2CCCCC2)c1,"inconclusive: 10 µM [activator, partial curve]",
C=CCn1c(SCC(=O)N2CCc3ccccc3C2)nc2sc(C)cc2c1=O,"inconclusive: 17.8 µM [activator, single point]",
COC(=O)Nc1sc2c(c1C(=O)NC1CC1)CCCCCC2,"inconclusive: 35.5 µM [inhibitor, single point]",
CCCCc1nc2sc3c(SCC(=O)NCc4ccco4)ncnc3c2c2c1CCC2,inactive,
Cc1ccc(-c2nc3[nH]c(=O)cc(NC(=O)C(C)C)n3n2)cc1,inactive,
COc1ccc(N/C=C\C(=O)c2ccc3c(c2)OCO3)cc1OC,"inconclusive: 2.82 µM [activator, full curve, poor fit]",

# In the list so far, three contain a cyano group.
SMILES,Potency,"activity change, negative = inhibition"
CSc1ccc(/C=C(\C#N)C(=O)NC2CCCCC2)cc1,inactive,
CCCN1CC=C2C(C#N)=C(N)C(C#N)(C#N)C(c3cccc(OC)c3OC)C2C1 (configuration not stated),inactive,
CCOC(=O)c1sc(NC(=O)c2cccc(S(=O)(=O)N3CCc4ccccc43)c2)c(C#N)c1C,"inconclusive: 35.5 µM [inhibitor, single point]",

# (listing goes on)

SMILES,Potency,"activity change, negative = inhibition"
O=S(=O)(NCc1ccccn1)c1ccccn1,active: 11.2 µM,
CCN(Cc1ccccc1)C(=O)c1ccc(CNS(=O)(=O)c2ccc(C)cc2)cc1,"inconclusive: 35.5 µM [activator, single point]",
CCOC(=O)c1[nH]c(COC(=O)c2ccccc2NC(=O)c2ccco2)c(C(=O)OCC)c1C,"inconclusive: 12.6 µM [activator, single point]",
N/C(Cc1ccc([N+](=O)[O-])cc1)=N\OC(=O)CC1CCCCC1,active: 12.6 µM,
COc1ccc(-c2cn3cccnc3n2)cc1F,"inconclusive: 1.41 µM [activator, partial curve]",
O=C(c1csc2c1CCCC2)N1CCN(c2ccc(F)cc2)CC1,inactive,
O=C1C(Cl)=C(N2CCCCCC2)C(=O)N1c1ccc(Cl)cc1,"inconclusive: 12.6 µM [activator, single point]",
COC(=O)c1ccc(C(NC(=O)OCc2ccccc2)/C(F)=C/[C@@H](C)C(=O)NCCc2c[nH]c3ccc(OC)cc23)cc1 (some centres not stated),"inconclusive: 14.1 µM [activator, single point]",
O=C(Nc1ccc(F)cc1)N(Cc1cccs1)Cc1cc2cc3c(cc2[nH]c1=O)OCO3,"inconclusive: 17.8 µM [activator, partial curve]",
O=C(Nc1nnc(-c2cccs2)o1)c1ccco1,active: 2.51 µM,
O=C(CSc1ccc2nnc(CCNC(=O)c3ccccc3)n2n1)Nc1ccccc1,"inconclusive: 12.6 µM [activator, single point]",
COc1ccc(NC(=O)C(=O)NNC(=O)COc2ccc(Cl)cc2)c(OC)c1,"inconclusive: 15.8 µM [inhibitor, single point]",
COc1cc2c(cc1OC)CN(Cc1cc(=O)n3cc(C)ccc3n1)CC2,,inactive: -12.7% [at 10 µM]
CCc1nnc(NC(=O)CSc2nc(C3CCCCC3)nc3ccccc23)s1,"inconclusive: 7.08 µM [inhibitor, full curve, poor fit]",
CCOC(=O)c1sc(Nc2nc(C)cc(C)n2)nc1C,inactive,
Cc1cc(Cl)ccc1NC(=S)NCc1ccc(Cl)cc1,active: 2.82 µM,
CC1CCCN(C(=O)CN2CCC(c3nc4ccc(Cl)cc4[nH]3)CC2)C1 (configuration not stated),inactive,
O=C(C[n+]1cc(-c2ccccc2)n2c1CCC2)Nc1nc(-c2ccc(F)cc2)cs1,inactive,
C/C(=N\NC(=O)c1cc2ccccc2cc1O)c1cc2ccccc2o1,active: 10 µM,
O=C(Nc1nnc(-c2ccccc2Cl)s1)c1ccccc1F,inactive,
Cc1ccc(S(=O)(=O)CCSc2nccn2C)cc1,inactive,
COc1ccccc1/C=N/Nc1nccnc1Cl,"inconclusive: 11.2 µM [inhibitor, single point]",
Cc1cc(C)n(C(C)CNS(=O)(=O)c2ccccc2)n1 (configuration not stated),"inconclusive: 35.5 µM [inhibitor, single point]",
Cc1ccc2c(c1)nnn2C1CCN(S(=O)(=O)c2ccc(C(=O)N(C)C3CCCCC3)cc2)CC1,"inconclusive: 6.31 µM [activator, single point]",

# — PubChem BioAssay AID2551 (National Center for Advancing Translational Sciences (NCATS), 2010)
